Source: PMC7015432
No constants are given. Whether binding was seen depends on the method and setting. In cells and extracts the contact can be indirect. Binding calls can cover weak binding; strength is not graded here.

Sequences of proteins named here, by UniProt entry; tags and fusion partners are left off. A change or cut given only in a name is not applied to a line headed by its entry.
UniProt Q9ULP9: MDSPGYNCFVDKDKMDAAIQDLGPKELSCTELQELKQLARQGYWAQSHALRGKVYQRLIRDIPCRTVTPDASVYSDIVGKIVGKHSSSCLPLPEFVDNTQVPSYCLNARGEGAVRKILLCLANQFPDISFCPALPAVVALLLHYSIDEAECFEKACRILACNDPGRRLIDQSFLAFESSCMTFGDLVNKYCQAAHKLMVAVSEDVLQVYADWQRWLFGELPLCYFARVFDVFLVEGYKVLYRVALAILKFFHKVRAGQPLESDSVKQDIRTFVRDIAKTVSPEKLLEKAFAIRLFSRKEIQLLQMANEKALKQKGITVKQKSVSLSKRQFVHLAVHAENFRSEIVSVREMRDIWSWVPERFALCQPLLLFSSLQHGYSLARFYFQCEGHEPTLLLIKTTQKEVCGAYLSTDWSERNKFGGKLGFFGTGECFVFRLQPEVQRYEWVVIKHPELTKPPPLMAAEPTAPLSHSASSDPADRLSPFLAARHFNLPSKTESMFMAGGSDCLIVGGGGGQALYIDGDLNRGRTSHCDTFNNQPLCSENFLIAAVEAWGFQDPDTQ
UniProt P62330: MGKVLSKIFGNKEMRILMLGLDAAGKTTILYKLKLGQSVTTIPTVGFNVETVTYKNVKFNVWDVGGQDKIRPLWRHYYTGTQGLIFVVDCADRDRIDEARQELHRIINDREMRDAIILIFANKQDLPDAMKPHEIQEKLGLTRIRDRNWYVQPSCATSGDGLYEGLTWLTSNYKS
UniProt Q15286: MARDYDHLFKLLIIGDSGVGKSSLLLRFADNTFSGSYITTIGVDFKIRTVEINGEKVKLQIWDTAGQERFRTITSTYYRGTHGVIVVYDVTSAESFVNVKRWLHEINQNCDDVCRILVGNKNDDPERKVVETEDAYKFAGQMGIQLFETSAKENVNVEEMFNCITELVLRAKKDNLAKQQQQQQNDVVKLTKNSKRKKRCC

molecular target: FLAG-tagged wild-type TBC1D24 (human) (UniProt Q9ULP9); experiment: co-IP; HEK293T cells co-transfected, lysed 36 hr later in 50 mM Tris pH 7.5, 150 mM NaCl, 0.1% SDS, 1% Nonidet P40; 1 mg lysate with ANTI-FLAG M2 Affinity Gel at 4 °C for 2 hr; FLAG-TBC1D24 is the bait

binding, binds:
HA-tagged wild-type ARF6 (from UniProt P62330 1-175)
HA-tagged ARF6 T27N (from UniProt P62330 1-175)
HA-tagged ARF6 Q67L (from UniProt P62330 1-175)

binding, no binding:
Myc-tagged wild-type Rab35 (from UniProt Q15286 1-201)
Myc-tagged Rab35 S22N (from UniProt Q15286 1-201)
Myc-tagged Rab35 Q67L (from UniProt Q15286 1-201)
